Laboratory results: patent US20220252583A1, “SEMICONDUCTOR BASED BIOSENSOR UTILIZING THE FIELD EFFECT OF A NOVEL COMPLEX COMPRISING A CHARGED NANOPARTICLE” (LIFE SCIENCE INKUBATOR SACHSEN GMBH & CO. KG, priority 2019, published 2022)

Tested on: monoclonal mouse IgG1 anti human CRP antibody B08
Assay: Displacement reaction on swCNT-FET biosensor: CRP displaces peptide 80715-Au nanoparticle complex from the antibody
Format: binding
Settings: constant current, reaction time 10 minutes, peptide 80715 complex
Method: The current sensor chips are conducted by crocodile clamps to a dual-channel source meter (Keithley 2612B). The samples are applied by a pipet. Sample volumes are varied between 10 and 50 μl.
As gate electrode a Ag/AgCl electrode operating in a top gate setting was used. A feedback circuit was also implemented, which measures constantly the applied gate current and regulates the gate current voltage if necessary.
A complex comprising a second binding molecule that is coupled to Au nanoparticle via a linker has been produced as described in example 1. 5 nM Au particles with 10 functionally coupled peptides per Au particle were used in the experiment.
The biosensor was functionalized as described in example 4, in this experiment with the monoclonal mouse IgG1 anti human CRP antibody B08. The affinity of the antibody was first tested against CRP (SEQ ID NO: 1) and the modified peptide sequences of SEQ ID NOs: 2 to 6.
The subsequent displacement measurements were performed with the peptide 80715 (SEQ ID NO: 5).
The Au nanoparticles are bound to the CRP-specific antibody via a peptide and exert a field effect on the semiconductor. If the biomarker (in this case CRP) is present in the blood sample, it can displace the nanoparticle and thus annul the field effect.
By adding different concentrations of the biomarker CRP, the current-voltage curve of the transistor has changed accordingly. The following CRP concentration s were used: 381 fM, 3 pM, 24 pM, 195 pM, 1.56 nM, 12.5 nM, 100 nM and 800 nM.
At constant current, changes in the biomarker concentration were measured as voltage changes. […] Reaction times were 10 minutes, measurements were performed in PBS (i.e. 150 mM salt concentration).

CRP: biomarker C-reactive protein, the analyte detected by the biosensor
ΔV (V) (CRP concentration 3 pM in PBS): −0.013 V | ΔV (V) (CRP concentration 24 pM in PBS): −0.016 V | ΔV (V) (CRP concentration 195 pM in PBS): −0.017 V | ΔV (V) (CRP concentration 1.56 nM in PBS): −0.020 V | ΔV (V) (CRP concentration 12.5 nM in PBS): −0.022 V | ΔV (V) (CRP concentration 100 nM in PBS): −0.024 V | ΔV (V) (CRP concentration 800 nM in PBS): −0.027 V | ΔV (V) (CRP concentration 381 fM in PBS): −0.009 V
